Results are given in words; binding and its absence hold for the method and conditions named.
Molecular target: GST fusion protein with full-length S. aureus WalR (1–233) (Staphylococcus aureus NCTC8325) (UniProt Q2G2U6)
Assay: pull-down; GST-tagged WalR protein held on glutathione agarose beads, His-tagged WalK as prey, equal molar amounts (~3 μl of 50 μM each) in 1 ml of 20 mM Tris-HCl pH 8.0, 200 mM NaCl, 5% glycerol, 2 mM EDTA, 2 h at 4°C; SDS-PAGE stained with CBB; both purified

The chains behind the UniProt entries cited, without tags or fusion partners.
UniProt Q2G2U6: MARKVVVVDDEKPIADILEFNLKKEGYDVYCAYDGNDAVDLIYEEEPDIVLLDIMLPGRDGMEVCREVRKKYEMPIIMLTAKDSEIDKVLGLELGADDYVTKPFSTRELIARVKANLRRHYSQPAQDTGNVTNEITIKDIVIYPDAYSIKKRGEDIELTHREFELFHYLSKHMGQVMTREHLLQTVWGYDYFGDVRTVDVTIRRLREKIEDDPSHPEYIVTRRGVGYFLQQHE

Substance: S. aureus WalK (364–608) Δtail (the last 7 amino acids deleted) (from UniProt Q2G2U4 364-601) (domain or fragment)
- binding: no binding
